## Microarray screen: hit calls

Calls as published in the ROBIN set (doi:10.1002/anie.202211358).

Targets, with sequences 5′ to 3′:
SAM-II: SAM-II riboswitch RNA pseudoknot, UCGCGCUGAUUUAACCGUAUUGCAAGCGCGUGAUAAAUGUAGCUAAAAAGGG. Hit rate about 1% of about 21,000 compounds.
PreQ1: PreQ1 riboswitch RNA pseudoknot, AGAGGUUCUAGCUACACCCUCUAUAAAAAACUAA. From B. subtilis. Hit rate about 0.7% of about 24,000 compounds.
TPP: TPP riboswitch RNA three-way junction, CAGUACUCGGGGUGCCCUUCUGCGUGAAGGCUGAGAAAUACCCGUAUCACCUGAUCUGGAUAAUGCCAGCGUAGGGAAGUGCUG. Hit rate about 0.7% of about 24,000 compounds.

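Each compound is printed as two spots on a slide made to bind it covalently, so it has no test concentration; the read-out is fluorescence of the bound, labelled oligonucleotide. The data file lists only calls. An earlier report of the laboratory on the PreQ1, TPP and SAM-II riboswitches (doi:10.1038/s41467-019-09493-3) used 1 µM RNA for 2 h and required a mean Z-score above 3 (spot signal-to-noise against the whole library), a score well above that on a control array, and duplicate spots agreeing (coefficient of variation under 100); it then also set aside compounds that hit other targets, which this list keeps. The cut-offs behind this list may differ. A missing hit is not proof of no binding, and a hit is not a measured affinity.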
Key: yes = hit, no = tested without a hit.
Compounds were drawn at random from those tested, without regard to their results.
A target missing from an entry has no call listed here.
A dash means that no call is listed here.

| Compound | SAM-II | PreQ1 | TPP |
|---|---|---|---|
| `NC1=C(c2nc3ccccc3[nH]2)C(=O)CN1c1ccc(Nc2ccccc2)cc1` | - | no | no |
| `Nc1ccc(C(=O)N2CCOC(c3ccc(Cl)c(Cl)c3)C2)cn1` (stereo not shown) | no | no | no |
| `CC(C)S(=O)(=O)c1ncc(CO)n1Cc1ccccc1` | no | no | no |
| `N#Cc1cnc2c(-c3ccc(Cl)cc3)cnn2c1N` | no | no | no |
| `C[C@@H]1CN(Cc2cc3n(n2)CCNC3)C[C@H](C)O1` | no | no | no |
| `N#Cc1nc(C=Cc2cccs2)oc1NCc1ccc2c(c1)OCO2` | - | no | no |
| `CC1CCCCC1Nc1c([N+](=O)[O-])c(=O)oc2ccccc12` (stereo not shown) | no | no | no |
| `Cc1ccc(S(=O)(=O)n2c(N)nc3ccccc32)cc1` | no | no | no |
| `CC(N[C@H]1CS(=O)(=O)C[C@@H]1S(=O)(=O)c1ccc(F)cc1)c1ccccc1` (stereo partly shown) | - | no | no |
| `O=C(CC1COCCN1)N1CCN(Cc2ccccn2)CC1` (stereo not shown) | no | no | no |
| `CC1CCCCC1NS(=O)(=O)c1cccc(N)c1` (stereo not shown) | - | no | no |
| `CNCC(=O)N1CCOc2c(O)cc(-c3cccnc3)cc2C1` | no | no | no |
| `CCOC(=O)N1CCN(c2c(NCCCN3CCN(c4cccc(Cl)c4)CC3)c(=O)c2=O)CC1` | - | no | no |
| `COC[C@H]1OC(=O)c2coc3c2[C@@]1(C)C1=C(C3=O)[C@@H]2CC[C@H](O)[C@@]2(C)C[C@@H]1OC(C)=O` | no | no | no |
| `N#Cc1cc(N)c(O)cc1C#N` | no | no | no |
| `NCCn1cc(C(=O)NCC(O)c2ccccc2C(F)(F)F)nn1` (stereo not shown) | no | no | no |
| `Cc1ccc2[nH]c(SCC(O)c3ccccc3)nc2c1` (stereo not shown) | - | no | no |
| `Cn1c(NCc2ccccc2)nc2c1c(=O)n(Cc1ccccc1F)c(=O)n2C` | no | no | no |
| `Cc1nccnc1Sc1ccccc1` | no | no | no |
| `C=CCN(CC#Cc1ccccc1)CC(O)CO` (stereo not shown) | no | no | no |
| `CC(=O)N1CCC(N[C@@H]2CC[C@@H]2NC(=O)CCc2ccc(=O)[nH]n2)CC1` | no | no | no |
| `CC(C)c1nccn1-c1ccc(N)cc1` | no | no | no |
| `FC(F)(F)c1ccccc1NCn1nnc2ccccc21` | no | no | no |
| `Fc1ccc2nc(Nc3ncccn3)nc(-c3ccccc3)c2c1` | no | no | no |
| `CCCn1c(=O)c2[nH]c(-c3cnn(Cc4cccc(C(F)(F)F)c4)c3)nc2n(CC)c1=O` | no | no | no |
| `C=CCNc1nc(SC)nc(-c2ccc(Cl)cc2)c1C#N` | - | no | no |
| `COc1ccc(N2C(=O)c3cccnc3C2Nc2cc(OC)cc(OC)c2)cc1` (stereo not shown) | - | no | no |
| `CCN(CC)C(CN)c1ccccc1` (stereo not shown) | no | no | no |
| `Cc1ncc2c(c1CNC(=O)c1ccc(C(F)(F)F)nc1O)CCNC2` | no | no | no |
| `CCN(Cc1ccncc1)C(=O)c1cn(CC2CCCNC2)nn1` (stereo not shown) | no | no | no |
| `COc1ccc(C)cc1NC(c1ccc(F)cc1)c1nnc(-c2ccccc2)o1` (stereo not shown) | no | no | no |
| `COc1ccc2nc3cc(Cl)ccc3c(N=C3C=C(CN4CCCC4)C(=O)C(CN4CCCC4)=C3)c2n1` | no | no | no |
| `CCCCn1ccnc1C1CCN(C(=O)CC2COCCN2)CC1` (stereo not shown) | no | no | no |
| `Cc1cc(N)c(O)c(Br)c1` | no | no | no |
| `CC(C)(C)C(=O)Oc1ccc(S(=O)(=O)Nc2ccccc2C(=O)NCC(=O)O)cc1` | no | no | no |
| `Cc1ccccc1CN1c2ccccc2C2=C(C(c3ccccc3F)C(C#N)=C(N)O2)S1(=O)=O` (stereo not shown) | - | no | no |
| `CCCCNc1nc(Oc2ccc(=O)n(C)n2)nc(N(C)C)n1` | - | no | no |
| `O=C(C=Cc1ccccc1)N1CC[C@@H](c2ccc3c(c2)OCO3)[C@H](O)C1` | no | no | no |
| `O=c1[nH]c(=O)n(C2CCCO2)cc1F` (stereo not shown) | no | no | no |
| `CC1=C(C(=O)OC(C)C)C2(C(=O)N(Cc3ccccc3)c3ccccc32)C(C#N)=C(N)O1` (stereo not shown) | no | no | no |
| `c1ccc(-c2n[nH]c(-c3ccccn3)n2)nc1` | no | no | no |
| `COCCN(C)C[C@@H]1CN(c2cc(C)c3ccc(SC)cc3n2)C[C@@H]1CO` | no | no | no |
| `CCn1c(CC2CCNCC2)nn(CC(=O)NCc2ccccc2)c1=O` | no | no | no |
| `CN(C)c1ccc2c(c1)OC(N)=C(C#N)C2c1ccc(F)cc1` (stereo not shown) | no | no | no |

Repeated from the top, 3 entries:

{"compound": "NC1=C(c2nc3ccccc3[nH]2)C(=O)CN1c1ccc(Nc2ccccc2)cc1", "PreQ1": "no", "TPP": "no"}
{"compound": "Nc1ccc(C(=O)N2CCOC(c3ccc(Cl)c(Cl)c3)C2)cn1", "stereo": "stereo not shown", "SAM-II": "no", "PreQ1": "no", "TPP": "no"}
{"compound": "CC(C)S(=O)(=O)c1ncc(CO)n1Cc1ccccc1", "SAM-II": "no", "PreQ1": "no", "TPP": "no"}